Experimental data reported in PubChem BioAssay AID587 (National Center for Advancing Translational Sciences (NCATS), 2007).
In all, about 59,000 compounds went through this assay and about 35 (0.06%) were called active. The inconclusive results got no clear call from the source; some entries with a clear call stand among them for comparison. Rule as the data show it: active = max dye-equivalent concentration above about 10 nM; inconclusive = between about 1.1 nM and that limit; inactive = weaker than that.

experiment: qHTS Assay for Spectroscopic Profiling in Texas Red Spectral Region; details: Compound fluorescence, Texas Red channel, 547/618 nm; stronger effect = higher value
Method in brief: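 qHTS profiling of intrinsic compound fluorescence; 100 mM Tris pH 8.0; 15 min RT; ex 547 / em 618 nm; response expressed as Texas Red dye-equivalent concentration from six-point plate standard.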

Row | SMILES | max dye-equivalent concentration
1 | CN(Cc1cccs1)C(=O)COc1cccc(-n2cnnn2)c1 | inconclusive: 1.1 nM
2 | CCN(CC)c1ccc2c(c1)C(=O)N(C)C2=O | inconclusive: 1.1 nM
3 | Cc1occc1-c1nnc(SCC(=O)Nc2nccs2)n1CCc1ccccc1 | inconclusive: 2 nM
4 | COc1ccc(-n2c(=O)c(C)nc3cnc(N4CCOCC4)nc32)cc1 | inactive
5 | CCN(C(=O)CSc1ccc2c(c1)OCCO2)C1CCS(=O)(=O)C1 (centres undefined) | inconclusive: 1.6 nM
6 | COc1ccc(-n2c(SCC(=O)Nc3ccc4c(c3)OCO4)nnc2C(C)N2CCCCC2)cc1 (centres undefined) | inconclusive: 1.9 nM
7 | Cc1ccc(N=Nc2c(O)c(S(=O)(=O)O)cc3cc(S(=O)(=O)O)ccc23)c(C)c1 | inconclusive: 1.2 nM
8 | O=C(O)CCN1/C(=C/C=Nc2ccccc2)Oc2ccccc21 | inconclusive: 2 nM
9 | O=C(O)CNC(=O)c1ccccc1NC(=O)c1ccco1 | inconclusive: 1.5 nM
10 | c1ccc(-c2nc3nonc3c3nc4ccccc4n23)cc1 | inconclusive: 1.5 nM
11 | CC(C)N(C(=O)COC(=O)c1ccccc1C(=O)N1CCN(c2ccc(F)cc2)CC1)C(C)C | inconclusive: 1.1 nM
12 | CCN1CCN(c2oc(-c3ccc(OC)cc3)nc2C#N)CC1 | inconclusive: 1.5 nM
13 | CCOc1ccc(NC(=O)Cn2nnc(-c3ccccc3NC(=O)CC)n2)cc1 | inconclusive: 1.2 nM
14 | O=c1cc(-c2ccccc2O)oc2c1ccc1ccccc12 | inactive
15 | CC(=O)NCCNc1ncncc1-c1ccc(N(C)C)cc1 | inactive
16 | CCOc1ccccc1NC(=O)N1CCC(NC(=O)c2ccccc2C)CC1 | inconclusive: 1.2 nM
17 | O=C(O)c1ccc(COc2ccc(Cl)cc2)o1 | inconclusive: 1.4 nM
18 | CC1CN(C2CCCCC2)c2nc3c(c(=O)n(C)c(=O)n3C)n2C1 (centres undefined) | inconclusive: 1.7 nM
19 | COc1ccc(NC(=O)c2ccco2)cc1NC(=O)c1ccco1 | inconclusive: 1.5 nM
20 | O=C1c2ccccc2C(=O)C12Cc1ccccc1N1CCN(c3ccccc3)CC12 (centres undefined) | inconclusive: 1.2 nM
21 | CCOc1ccc(-c2noc(-c3cccnc3)n2)cc1OC | inconclusive: 2.3 nM
22 | COc1cccc(C(=O)N(Cc2nc(-c3ccc(C)cc3)no2)C(C)C)c1 | inconclusive: 1.8 nM
23 | O=C(CSc1nc2ccccc2o1)Nc1nc2ccccc2s1 | inconclusive: 1.1 nM
24 | CCC(=O)N1CCc2cc(S(=O)(=O)NC(C(=O)NCc3ccccc3)C(C)C)ccc21 (centres undefined) | inconclusive: 1.1 nM

Some values from the list:
In max dye-equivalent concentration, CCOc1ccc(NC(=O)Cn2nnc(-c3ccccc3NC(=O)CC)n2)cc1 shows inconclusive: 1.2 nM
In max dye-equivalent concentration, COc1ccc(-n2c(SCC(=O)Nc3ccc4c(c3)OCO4)nnc2C(C)N2CCCCC2)cc1 (centres undefined) shows inconclusive: 1.9 nM
